{"source": "paper doi:10.1101/2021.04.27.441709", "target": "T1, ANXA7 (construct co-expressed with DFNA5(Flag)) (human) (UniProt P20073)", "T1 sequence": "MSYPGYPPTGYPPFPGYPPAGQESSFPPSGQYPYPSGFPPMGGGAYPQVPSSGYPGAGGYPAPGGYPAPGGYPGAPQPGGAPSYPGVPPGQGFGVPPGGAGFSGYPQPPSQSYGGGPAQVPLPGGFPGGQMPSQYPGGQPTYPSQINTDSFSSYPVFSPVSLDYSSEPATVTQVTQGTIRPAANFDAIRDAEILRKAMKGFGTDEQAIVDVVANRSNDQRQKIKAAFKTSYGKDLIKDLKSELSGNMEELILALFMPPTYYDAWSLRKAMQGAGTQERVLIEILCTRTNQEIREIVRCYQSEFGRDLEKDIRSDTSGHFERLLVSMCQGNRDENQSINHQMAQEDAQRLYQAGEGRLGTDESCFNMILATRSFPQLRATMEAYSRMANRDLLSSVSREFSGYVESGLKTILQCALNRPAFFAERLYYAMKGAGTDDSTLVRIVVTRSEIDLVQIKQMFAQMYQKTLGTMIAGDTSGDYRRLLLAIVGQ", "test": "co-IP", "note": "Results are given in words; binding and its absence hold for the method and conditions named. In cells and extracts the contact can be indirect. Binding can be weak; no strength is given. Where a sequence is shown, tags or fusion partners need not be part of it."}
{"substance": "Cleaved N-terminal fragment of DFNA5 tagged with internal Flag (human) (domain or fragment)", "values": [{"measurement": "binding", "value": "binds"}]}
